Results reported in patent publication US11560417B2, “Isolated polypeptides of CD44 and uses thereof” (Yissum Research Development Company of the Hebrew …, priority 2014, dated 2023).
For part of these data: Part of at least one peptide drawing is inferred or uncertain, most often the ends. For part of these data: At least one compound was matched to its structure with a doubt left. Peptide text beside a SMILES is read from it.

Amino acid sequences for entries named in this document (tags omitted). Residues count along the entry.
UniProt P04114, 28-4563: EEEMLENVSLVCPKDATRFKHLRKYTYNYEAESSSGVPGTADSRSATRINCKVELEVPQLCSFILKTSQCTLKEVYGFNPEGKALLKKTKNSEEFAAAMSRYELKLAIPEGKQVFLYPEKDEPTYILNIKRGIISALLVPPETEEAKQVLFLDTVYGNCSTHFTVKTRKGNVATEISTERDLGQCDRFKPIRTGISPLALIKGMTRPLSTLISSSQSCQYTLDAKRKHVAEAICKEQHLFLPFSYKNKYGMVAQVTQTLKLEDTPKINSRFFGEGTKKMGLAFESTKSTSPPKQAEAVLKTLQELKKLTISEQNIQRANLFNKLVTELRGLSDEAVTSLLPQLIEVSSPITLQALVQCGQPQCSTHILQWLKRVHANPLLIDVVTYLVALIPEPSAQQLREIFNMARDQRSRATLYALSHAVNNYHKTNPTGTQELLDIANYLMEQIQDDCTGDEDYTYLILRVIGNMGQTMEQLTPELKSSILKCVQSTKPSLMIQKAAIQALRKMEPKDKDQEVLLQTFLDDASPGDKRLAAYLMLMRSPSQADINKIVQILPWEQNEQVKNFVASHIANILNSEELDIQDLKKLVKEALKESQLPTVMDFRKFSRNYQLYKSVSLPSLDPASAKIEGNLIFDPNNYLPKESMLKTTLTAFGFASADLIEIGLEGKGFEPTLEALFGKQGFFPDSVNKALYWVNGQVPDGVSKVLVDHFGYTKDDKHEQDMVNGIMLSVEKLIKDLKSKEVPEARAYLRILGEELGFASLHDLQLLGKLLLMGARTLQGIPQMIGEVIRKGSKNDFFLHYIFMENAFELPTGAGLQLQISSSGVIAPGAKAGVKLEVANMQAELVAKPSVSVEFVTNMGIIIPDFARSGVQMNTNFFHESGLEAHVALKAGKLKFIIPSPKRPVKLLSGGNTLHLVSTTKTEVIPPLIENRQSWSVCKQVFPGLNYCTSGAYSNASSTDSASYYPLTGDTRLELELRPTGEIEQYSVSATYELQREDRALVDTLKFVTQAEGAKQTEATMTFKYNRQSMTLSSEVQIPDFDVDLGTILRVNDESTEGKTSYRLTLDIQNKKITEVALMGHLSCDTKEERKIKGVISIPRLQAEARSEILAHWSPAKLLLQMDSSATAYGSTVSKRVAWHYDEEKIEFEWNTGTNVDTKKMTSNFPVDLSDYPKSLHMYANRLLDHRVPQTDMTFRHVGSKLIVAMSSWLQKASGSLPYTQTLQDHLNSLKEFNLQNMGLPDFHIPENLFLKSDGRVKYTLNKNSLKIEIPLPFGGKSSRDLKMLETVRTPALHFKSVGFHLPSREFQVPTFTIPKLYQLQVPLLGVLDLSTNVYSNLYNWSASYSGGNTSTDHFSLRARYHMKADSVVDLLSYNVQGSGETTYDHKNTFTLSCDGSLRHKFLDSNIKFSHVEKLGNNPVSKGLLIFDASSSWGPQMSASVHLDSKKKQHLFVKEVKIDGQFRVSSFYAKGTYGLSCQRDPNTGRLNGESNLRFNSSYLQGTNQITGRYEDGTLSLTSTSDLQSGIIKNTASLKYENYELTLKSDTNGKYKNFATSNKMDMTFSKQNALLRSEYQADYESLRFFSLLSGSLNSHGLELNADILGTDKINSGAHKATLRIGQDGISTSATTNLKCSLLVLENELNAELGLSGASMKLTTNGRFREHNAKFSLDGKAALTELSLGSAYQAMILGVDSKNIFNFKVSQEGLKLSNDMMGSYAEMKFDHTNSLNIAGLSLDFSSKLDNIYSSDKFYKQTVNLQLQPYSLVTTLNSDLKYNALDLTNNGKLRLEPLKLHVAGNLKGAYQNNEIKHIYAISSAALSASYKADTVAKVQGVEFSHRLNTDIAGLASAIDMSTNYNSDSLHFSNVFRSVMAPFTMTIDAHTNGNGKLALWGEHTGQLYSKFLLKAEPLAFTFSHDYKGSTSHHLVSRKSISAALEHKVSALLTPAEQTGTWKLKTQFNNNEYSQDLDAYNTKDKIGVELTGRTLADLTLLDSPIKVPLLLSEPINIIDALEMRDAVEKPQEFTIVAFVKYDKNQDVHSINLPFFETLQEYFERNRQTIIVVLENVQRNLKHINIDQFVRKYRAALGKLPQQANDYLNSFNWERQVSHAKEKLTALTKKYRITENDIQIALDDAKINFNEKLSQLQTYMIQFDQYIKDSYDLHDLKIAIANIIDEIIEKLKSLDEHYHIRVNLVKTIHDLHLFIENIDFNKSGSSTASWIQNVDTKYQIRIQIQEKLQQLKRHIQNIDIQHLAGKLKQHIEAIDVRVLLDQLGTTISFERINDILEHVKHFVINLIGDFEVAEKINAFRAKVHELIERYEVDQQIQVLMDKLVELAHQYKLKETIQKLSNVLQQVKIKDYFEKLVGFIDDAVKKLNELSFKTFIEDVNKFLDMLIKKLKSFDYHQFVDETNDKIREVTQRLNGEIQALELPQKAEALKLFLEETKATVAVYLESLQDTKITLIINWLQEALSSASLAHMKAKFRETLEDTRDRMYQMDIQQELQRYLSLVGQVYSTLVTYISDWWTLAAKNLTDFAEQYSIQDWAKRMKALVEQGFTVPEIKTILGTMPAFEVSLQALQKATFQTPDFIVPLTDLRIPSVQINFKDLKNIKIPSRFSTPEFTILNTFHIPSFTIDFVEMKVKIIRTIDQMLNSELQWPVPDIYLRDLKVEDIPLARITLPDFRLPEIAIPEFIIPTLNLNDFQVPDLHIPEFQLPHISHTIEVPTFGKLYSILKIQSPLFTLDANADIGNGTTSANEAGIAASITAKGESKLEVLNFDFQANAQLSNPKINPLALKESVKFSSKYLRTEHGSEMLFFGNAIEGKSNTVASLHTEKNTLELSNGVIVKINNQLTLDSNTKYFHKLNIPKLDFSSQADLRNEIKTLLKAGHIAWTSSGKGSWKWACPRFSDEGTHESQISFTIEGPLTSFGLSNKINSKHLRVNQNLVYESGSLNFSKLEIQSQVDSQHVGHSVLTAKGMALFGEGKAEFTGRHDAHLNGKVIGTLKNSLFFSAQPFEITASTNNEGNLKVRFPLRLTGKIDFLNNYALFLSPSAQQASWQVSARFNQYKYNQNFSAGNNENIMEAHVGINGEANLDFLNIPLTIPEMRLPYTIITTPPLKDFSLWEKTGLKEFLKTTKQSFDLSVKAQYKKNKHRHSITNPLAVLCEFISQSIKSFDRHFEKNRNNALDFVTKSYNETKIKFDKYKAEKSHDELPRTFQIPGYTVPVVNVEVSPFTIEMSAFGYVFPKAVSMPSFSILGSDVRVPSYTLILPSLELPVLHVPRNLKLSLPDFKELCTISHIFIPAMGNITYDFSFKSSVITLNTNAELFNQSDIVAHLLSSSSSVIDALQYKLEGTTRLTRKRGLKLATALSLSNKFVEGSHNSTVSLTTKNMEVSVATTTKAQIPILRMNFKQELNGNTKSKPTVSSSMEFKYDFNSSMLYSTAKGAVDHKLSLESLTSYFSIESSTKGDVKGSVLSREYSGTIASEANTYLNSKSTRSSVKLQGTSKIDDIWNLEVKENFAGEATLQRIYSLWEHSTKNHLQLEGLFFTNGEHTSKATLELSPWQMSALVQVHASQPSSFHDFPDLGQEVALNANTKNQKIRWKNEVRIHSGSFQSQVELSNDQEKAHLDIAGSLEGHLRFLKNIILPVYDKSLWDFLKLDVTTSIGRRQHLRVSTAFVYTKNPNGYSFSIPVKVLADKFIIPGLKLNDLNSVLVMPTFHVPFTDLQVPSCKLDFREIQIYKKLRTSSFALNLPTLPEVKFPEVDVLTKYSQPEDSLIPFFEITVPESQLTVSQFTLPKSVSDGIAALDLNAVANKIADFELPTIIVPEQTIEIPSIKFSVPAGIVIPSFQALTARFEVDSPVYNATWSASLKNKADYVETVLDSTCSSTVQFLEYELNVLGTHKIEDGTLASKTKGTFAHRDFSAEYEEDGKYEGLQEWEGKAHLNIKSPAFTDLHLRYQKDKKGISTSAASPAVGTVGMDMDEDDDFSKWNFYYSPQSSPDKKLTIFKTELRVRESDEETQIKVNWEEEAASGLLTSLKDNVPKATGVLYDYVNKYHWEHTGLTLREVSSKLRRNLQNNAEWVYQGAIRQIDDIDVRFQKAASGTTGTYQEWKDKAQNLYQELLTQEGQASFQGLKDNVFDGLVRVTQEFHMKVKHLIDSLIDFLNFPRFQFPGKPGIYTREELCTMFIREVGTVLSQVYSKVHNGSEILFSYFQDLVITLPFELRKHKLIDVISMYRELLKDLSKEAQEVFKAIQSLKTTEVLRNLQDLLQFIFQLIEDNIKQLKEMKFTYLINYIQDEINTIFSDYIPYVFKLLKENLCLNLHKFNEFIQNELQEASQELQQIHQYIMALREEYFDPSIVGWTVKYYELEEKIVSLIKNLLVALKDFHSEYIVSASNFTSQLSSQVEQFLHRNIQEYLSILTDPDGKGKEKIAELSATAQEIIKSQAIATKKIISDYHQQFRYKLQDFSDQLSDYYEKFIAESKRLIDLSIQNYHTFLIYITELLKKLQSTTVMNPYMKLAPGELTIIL

What was measured:
Transthyretin = target: T1, Transthyretin (Homo sapiens, UniProt P02766); experiment: Biotinylated peptide pull-down from RA synovial fluid cell lysate, mass spectrometry; type: binding; conditions: cell lysate of synovial fluid cells of an RA patient, 12 hour at 4° C.
T1 construct: The cell lysate was incubated with a biotinylated 5-mer peptide (Sigma) or with PBS for 12 hour at 4° C; from tissue; host or cells: lysate of cells pelleted from the synovial fluid of an RA patient

[1] = Stability of the peptide upon storage, quantified by LCMS; type: physicochemical; conditions: storage in saline at room temperature and 4° C.; −20° C. taken as 100% stability
[2] = system: fibroblasts from the inflammatory joint of an RA patient; type: cell-based, human
Description: Cells—Fibroblasts from the inflammatory joint of an RA patient were cultured and maintained as shown in Bendersky et al, J Immunol.; 188:4349-59, 2012. A quantity of 20,000 cells was added to each one of the 96 well plates with the indicated concentrations of peptide, serum amyloid A or α-lactalbumin.
MTT assay—MTT assay was effected as shown in Madhyastha et al. (2015) J Clin Diagn Res.; 9 :ZCO5-8.
An in-vitro model was developed as a tool to evaluate the biological activity of the generated RA peptides. To this end, fibroblasts from the inflammatory joint of an RA patient were incubated in-vitro and the effect of the peptides on cell survival was evaluated by a MTT assay.

Serum Amyloid A (SAA) = experiment: Biotinylated peptide pull-down from RA synovial fluid cell lysate, mass spectrometry; type: binding, human; conditions: cell lysate of synovial fluid cells of an RA patient, 12 hour at 4° C.
[3] = system: CIA mice on C57BL/6 background; experiment: Histology (H&E) of hind limb joint sections of CIA mice; type: in vivo, mouse; conditions: 70 μg per injection i.p., 10 consecutive days, sacrifice day 11
Apolipoprotein B = target: T2, Apolipoprotein B (Homo sapiens, UniProt P04114); experiment: Biotinylated peptide pull-down from RA synovial fluid cell lysate, mass spectrometry; type: binding; conditions: cell lysate of synovial fluid cells of an RA patient, 12 hour at 4° C.
T2 construct: The cell lysate was incubated with a biotinylated 5-mer peptide (Sigma) or with PBS for 12 hour at 4° C; from tissue; host or cells: lysate of cells pelleted from the synovial fluid of an RA patient

[4] = system: CIA mice on DBA/1 background; experiment: Paw swelling in collagen-induced arthritis (CIA) mice on DBA/1 background; type: in vivo, mouse; conditions: 50 μg i.p., daily for 9 days
Description: Mice—Collagen-induced arthritis (CIA) was generated in DBA/1 or C57BL mice by injection of type II collagen as described in Nedvetzki et al., PNAS 101, 18081-18086, 2004.
Treatment protocol—PBS, or the 9-mer RA peptide (SEQ ID NO: 3) at a dose of 25 μg, 100 μg or 150 μg per injection was administered i.p to CIA mice for 4 times within 6 days (see Table 3 below). PBS (n=7), or 5-mer RA peptide (SEQ ID NO: 1, n=7) at a dose of 70 μg per injection were administered i.p to CIA mice on C57BL/6 background for 10 consecutive days. In all groups first injection was given at the onset of disease as determined by paw swelling.
Evaluation of joint inflammation—Inflammation was evaluated by the paw swelling response. Paw swelling was measured by micro caliber. Paw swelling at range of 2.1-2.3 mm was considered “onset of disease” and the starting point for injection of the peptides. […]
Treatment protocol—PBS, or the tested peptides [Ac-TRMTADVDR-NH2 (SEQ ID NO: 6), Ac-MTADVDR-NH2 (SEQ ID NO: 5), Ac-MTADV-NH2 (SEQ ID NO: 4) and scrambled Ac-TMDVADR-NH2 (SEQ ID NO: 7)] at doses of 70 or 200 μg per injection were administered i.p to […] for 9-10 consecutive days (see Tables 4-7 below). […] In all groups first injection was given at the onset of disease as determined by paw swelling. […]

| SMILES | binding protein identified by mass spectrometry (Transthyretin) | time the peptide is stable upon storage [1] | effect of increasing dose on cell survival ([2]; MTT assay) | low dose able to significantly inhibit cell survival ([2]; MTT assay) [µg/mL] | low dose able to significantly inhibit cell survival (molar) ([2]; MTT assay) [nM] | survival of the fibroblasts ([2]; peptide at constant concentration 25 μg/ml) | binding protein identified by mass spectrometry (Serum Amyloid A (SAA)) | average joint infiltration score (0=no infiltration; 4=massive infiltration) [3] | erosion of the articular cartilage and the subchondral bone [3] | infiltration of mononuclear inflammatory cells into the joint capsule [3] | binding protein identified by mass spectrometry (Apolipoprotein B) | footpad swelling vs PBS [4] |
| --- | --- | --- | --- | --- | --- | --- | --- | --- | --- | --- | --- | --- |
| CSCC[C@H](N)C(=O)N[C@H](C(=O)N[C@@H](C)C(=O)N[C@@H](CC(=O)O)C(=O)N[C@H](C(=O)O)C(C)C)[C@@H](C)O [5-mer RA peptide, MTADV] (H-MTADV-OH) | potential target proteins | at least 22 weeks | gradually inhibits cell survival | 2.5 | ~5 | reduced survival of the fibroblast | potential target proteins | about 1 | no erosion | none-to-mild infiltration | potential target proteins |  |
| C[C@@H]1C[C@H]2[C@@H]3CCC4=CC(=O)C=C[C@]4(C)[C@@]3(F)[C@@H](O)C[C@]2(C)[C@@]1(O)C(=O)CO [Dexamethasone, reference compound] |  |  |  |  |  |  |  |  |  |  |  | decreased footpad swelling |
